No constants are given. Whether binding was seen depends on the method and setting. Binding seen in cells or lysates may run through a third protein. Some entries that bind do so weakly or less than the wild type.
Legend:
[1] = molecular target: kindlin-2 (human (endogenous in A549)) (UniProt Q96AC1); assay: co-IP; A549 cell lysates (0.5-2 mg protein), IP overnight at 4 °C with mouse anti-kindlin-2 (clone 3A3.5), Protein A/G agarose, blot for PYCR1; wild type cells, PINCH-1 KO (reduced), 3xFLAG-PINCH-1 re-expression (restored), DRP1 siRNA in PINCH-1 KO cells (increased)
[2] = molecular target: kindlin-2 (human (endogenous in A549)) (UniProt Q96AC1); assay: proximity ligation; Duolink PLA on fixed, permeabilised A549 cells with rabbit anti-PYCR1 and mouse anti-kindlin-2 (clone 3A3.5); wild type cells, PINCH-1 KO (inhibited), 3xFLAG-PINCH-1 re-expression (restored), DRP1 siRNA (increased), 3xFLAG-MFN2 overexpression (increased)

Amino acid sequences for entries named in this document (tags omitted).
UniProt Q96AC1: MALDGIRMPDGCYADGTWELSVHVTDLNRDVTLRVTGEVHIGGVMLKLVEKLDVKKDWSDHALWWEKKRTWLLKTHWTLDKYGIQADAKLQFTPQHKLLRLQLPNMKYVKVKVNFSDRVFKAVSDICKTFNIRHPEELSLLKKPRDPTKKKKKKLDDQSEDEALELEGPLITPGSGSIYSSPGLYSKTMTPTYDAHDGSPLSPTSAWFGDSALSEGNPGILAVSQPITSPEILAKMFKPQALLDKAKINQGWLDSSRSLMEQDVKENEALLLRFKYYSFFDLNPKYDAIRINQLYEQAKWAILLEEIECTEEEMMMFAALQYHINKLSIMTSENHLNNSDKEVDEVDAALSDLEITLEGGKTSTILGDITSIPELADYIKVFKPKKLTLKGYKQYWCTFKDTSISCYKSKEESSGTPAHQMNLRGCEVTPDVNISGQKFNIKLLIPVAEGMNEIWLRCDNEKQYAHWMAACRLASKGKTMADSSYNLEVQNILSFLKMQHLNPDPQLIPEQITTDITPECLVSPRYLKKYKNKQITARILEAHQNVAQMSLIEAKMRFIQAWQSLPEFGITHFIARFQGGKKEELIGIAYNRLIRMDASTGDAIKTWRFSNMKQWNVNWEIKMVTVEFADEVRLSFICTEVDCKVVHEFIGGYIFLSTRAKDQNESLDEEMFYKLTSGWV

B1: pyrroline-5-carboxylate reductase 1 (enzyme, UniProt P32322 1-319)
chain: MSVGFIGAGQLAFALAKGFTAAGVLAAHKIMASSPDMDLATVSALRKMGVKLTPHNKETVQHSDVLFLAVKPHIIPFILDEIGADIEDRHIVVSCAAGVTISSIEKKLSAFRPAPRVIRCMTNTPVVVREGATVYATGTHAQVEDGRLMEQLLSSVGFCTEVEEDLIDAVTGLSGSGPAYAFTALDALADGGVKMGLPRRLAVRLGAQALLGAAKMLLHSEQHPGQLKDNVSSPGGATIHALHVLESGGFRSLLINAVEASCIRTRELQSMADQEQVSPAAIKKTILDKVKLDSPAGTALSPSGHTKLLPRSLAPAGKD
binding [1]: binds | binding [2]: binds

Source: PMC7529891
